Source: patent US8653242B2, “Therapeutic antibodies against flagellated Pseudomonas aeruginosa” (priority 2010, dated 2014)
At least one compound was matched to its structure with a doubt left.

System: Ka02 multi-drug resistant P. Aeruginosa strain
Test: Antibiogram of Ka02 (Vitek MIC)
Type: cell-based
Conditions: calls of the two sites

Structure (SMILES): CN(C)c1ccc(O)c2c1C[C@H]1C[C@H]3[C@H](N(C)C)C(O)=C(C(N)=O)C(=O)[C@@]3(O)C(O)=C1C2=O [Minocycline]
- Vitek (sensitive/resistant call): R/R
